# Results are given in words; binding and its absence hold for the method and conditions named. Binding seen in cells or lysates may run through a third protein. These calls come from enrichment with a bait or labelling near it, and not all partners need be listed.
# Amino acid sequences for entries named in this document (tags omitted).
# UniProt P30086: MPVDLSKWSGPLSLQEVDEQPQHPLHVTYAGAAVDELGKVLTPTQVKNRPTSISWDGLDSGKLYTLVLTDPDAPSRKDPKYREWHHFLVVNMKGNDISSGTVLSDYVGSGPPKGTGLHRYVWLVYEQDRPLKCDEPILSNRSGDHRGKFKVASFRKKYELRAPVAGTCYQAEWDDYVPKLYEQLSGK
# B1: Structural maintenance of chromosomes protein 1A (protein, UniProt Q14683 1-1233)
# chain: MGFLKLIEIENFKSYKGRQIIGPFQRFTAIIGPNGSGKSNLMDAISFVLGEKTSNLRVKTLRDLIHGAPVGKPAANRAFVSMVYSEEGAEDRTFARVIVGGSSEYKINNKVVQLHEYSEELEKLGILIKARNFLVFQGAVESIAMKNPKERTALFEEISRSGELAQEYDKRKKEMVKAEEDTQFNYHRKKNIAAERKEAKQEKEEADRYQRLKDEVVRAQVQLQLFKLYHNEVEIEKLNKELASKNKEIEKDKKRMDKVEDELKEKKKELGKMMREQQQIEKEIKEKDSELNQKRPQYIKAKENTSHKIKKLEAAKKSLQNAQKHYKKRKGDMDELEKEMLSVEKARQEFEERMEEESQSQGRDLTLEENQVKKYHRLKEEASKRAATLAQELEKFNRDQKADQDRLDLEERKKVETEAKIKQKLREIEENQKRIEKLEEYITTSKQSLEEQKKLEGELTEEVEMAKRRIDEINKELNQVMEQLGDARIDRQESSRQQRKAEIMESIKRLYPGSVYGRLIDLCQPTQKKYQIAVTKVLGKNMDAIIVDSEKTGRDCIQYIKEQRGEPETFLPLDYLEVKPTDEKLRELKGAKLVIDVIRYEPPHIKKALQYACGNALVCDNVEDARRIAFGGHQRHKTVALDGTLFQKSGVISGGASDLKAKARRWDEKAVDKLKEKKERLTEELKEQMKAKRKEAELRQVQSQAHGLQMRLKYSQSDLEQTKTRHLALNLQEKSKLESELANFGPRINDIKRIIQSREREMKDLKEKMNQVEDEVFEEFCREIGVRNIREFEEEKVKRQNEIAKKRLEFENQKTRLGIQLDFEKNQLKEDQDKVHMWEQTVKKDENEIEKLKKEEQRHMKIIDETMAQLQDLKNQHLAKKSEVNDKNHEMEEIRKKLGGANKEMTHLQKEVTAIETKLEQKRSDRHNLLQACKMQDIKLPLSKGTMDDISQEEGSSQGEDSVSGSQRISSIYAREALIEIDYGDLCEDLKDAQAEEEIKQEMNTLQQKLNEQQSVLQRIAAPNMKAMEKLESVRDKFQETSDEFEAARKRAKKAKQAFEQIKKERFDRFNACFESVATNIDEIYKALSRNSSAQAFLGPENPEEPYLDGINYNCVAPGKRFRPMDNLSGGEKTVAALALLFAIHSYKPAPFFVLDEIDAALDNTNIGKVANYIKEQSTCNFQAIVISLKEEFYTKAESLIGVYPEQGDCVISKVLTFDLTKYPDANPNPNEQ
# Target: RKIP-3xFLAG fusion protein (UniProt P30086)
# Assay: affinity purification with mass spectrometry; RKIP-3xFLAG from transfected SGC7901 cells held on anti-FLAG M2 magnetic beads (overnight, 4°C); 1D SDS-PAGE, in-gel trypsin digestion, ESI-Q-TOF MS/MS; 3xFLAG (blank carrier) and blank groups as controls; repeated three times
binder,measurement,value
B1,binding,binds

# — paper PMC3830446
